Consider three compounds from PubChem BioAssay AID226 (DTP/NCI, 2004).

Structures are written as SMILES. The list is a part of this screen's results and no random one: it gathers tests that were run many times, whatever their T/C, doses with no T/C, and many T/C values between a quarter and a half above the control. Other doses and runs of a compound stand elsewhere. T/C: endpoint of the treated group in % of that of the vehicle group. Some doses have a count of surviving animals in place of a T/C: the source files T/C as zero there, which appears to mark a toxic dose or a test without result, not a measured value. Some survivor counts are full or nearly so, which does not show that the dose was tolerated: the source hardly ever lists a survival T/C far under the control, and the zero likely stands for such cases as well. Counts of survivors are from the toxicity check (mostly the fifth day) where no day follows; animals may have died later. Schedule codes are those of the source, taken here to give the interval after Q, in days (D) or hours (H), and the number of doses after X. Some entries were tested several times; their values stand side by side, smallest first. Some schedules carry Z or #; the key to these is not given. Where survival is the endpoint, the PubChem record calls one and a half times the control and up active, and a quarter to a half above the control has no call in these data; cut-offs in other NCI protocols can differ. Some T/C values are followed by the survivors on the day toxicity was checked, most often the fifth; without a count, all were alive then.

This test deals with B6C3F1 mice, intracerebral ependymoblastoma, median survival T/C. As to the kind of experiment: NCI In Vivo Anticancer Drug Screen. Data for tumor model Ependymoblastoma (intracerebral) in B6C3F1 mice. To be noted: T/C endpoint: median survival time, higher T/C = longer survival. The protocol: The antitumor activity of compounds was measured in mice bearing transplantable tumors. Survival or tumor size were measured and the results are expressed as the measurement made in the treated group (T) divided by the measurement made in the vehicle treated control group (C). The tumor model used in this assay is Ependymoblastoma (intracerebral) in B6C3F1 mice

The mark [1] stands for this setting: dose: 32.0 mg/kg/injection, schedule: Q01DX005 (ip), vehicle: Klucel (hydroxypropylcellulose) (HPC).

For `CN(N=O)C(N)=O`, the T/C is 130 % of control (dose: 1.0 mg/kg/injection, schedule: Q01DX005 (ip), vehicle: saline + alcohol, evaluated on day 45); 107 [8 of 10 alive], 115, 130 % of control (dose: 1.0 mg/kg/injection, schedule: Q01DX005 (ip), vehicle: saline + alcohol, evaluated on day 60); 132 % of control (dose: 1.0 mg/kg/injection, schedule: Q## X006 (ip), vehicle: saline + alcohol); 136 % of control (dose: 2.0 mg/kg/injection, schedule: Q01DX005 (ip), vehicle: saline + alcohol, evaluated on day 45); 125, 132 [9 of 10 alive], 145 % of control (dose: 2.0 mg/kg/injection, schedule: Q01DX005 (ip), vehicle: saline + alcohol, evaluated on day 60); 141 % of control (dose: 2.0 mg/kg/injection, schedule: Q## X006 (ip), vehicle: saline + alcohol). For the same compound, the T/C was 125 % of control (dose: 2.5 mg/kg/injection, schedule: Q01DX001 (ip), vehicle: saline); 130 % of control (dose: 4.0 mg/kg/injection, schedule: Q01DX001 (ip), vehicle: saline + alcohol); 140 and 140 % of control [9 of 10 alive] (dose: 4.0 mg/kg/injection, schedule: Q01DX005 (ip), vehicle: Klucel (hydroxypropylcellulose) (HPC)); 150 % of control (dose: 4.0 mg/kg/injection, schedule: Q01DX005 (ip), vehicle: saline + alcohol, evaluated on day 45); 123 [9 of 10 alive], 130, 154 % of control (dose: 4.0 mg/kg/injection, schedule: Q01DX005 (ip), vehicle: saline + alcohol, evaluated on day 60); 145 % of control (dose: 4.0 mg/kg/injection, schedule: Q## X004 (ip), vehicle: saline + alcohol). In addition, the T/C runs as follows: (dose: 5.0 mg/kg/injection, schedule: Q01DX001 (ip), vehicle: saline) 146 % of control; (dose: 8.0 mg/kg/injection, schedule: Q01DX001 (ip), vehicle: saline + alcohol) 130 and 136 % of control; (dose: 8.0 mg/kg/injection, schedule: Q01DX005 (ip), vehicle: saline + alcohol, evaluated on day 45) 156 % of control; (dose: 8.0 mg/kg/injection, schedule: Q01DX005 (ip), vehicle: saline + alcohol, evaluated on day 60) 119 [9 of 10 alive], 137, 160 % of control; (dose: 8.0 mg/kg/injection, schedule: Q01DX005 (oral), vehicle: saline + alcohol) 143 % of control; (dose: 8.0 mg/kg/injection, schedule: Q#A X002 (ip), vehicle: saline + alcohol) 132 % of control. For the same compound, the T/C is, setting by setting: (dose: 10.0 mg/kg/injection, schedule: Q01DX001 (ip), vehicle: saline) 140 % of control; (dose: 16.0 mg/kg/injection, schedule: Q01DX001 (ip), vehicle: saline + alcohol) 128 [7 of 10 alive], 134, 142 % of control; (dose: 16.0 mg/kg/injection, schedule: Q01DX001 (oral), vehicle: saline + alcohol) 130 and 143 % of control; (dose: 16.0 mg/kg/injection, schedule: Q01DX005 (ip), vehicle: Klucel (hydroxypropylcellulose) (HPC)) 146 % of control; (dose: 16.0 mg/kg/injection, schedule: Q01DX005 (ip), vehicle: saline + alcohol, evaluated on day 45) 89 % of control; (dose: 16.0 mg/kg/injection, schedule: Q01DX005 (ip), vehicle: saline + alcohol, evaluated on day 60) 125, 129, 145 % of control. Further, the T/C is, setting by setting: (dose: 16.0 mg/kg/injection, schedule: Q## X004 (ip), vehicle: saline + alcohol) 145 % of control; (dose: 16.0 mg/kg/injection, schedule: Q#A X002 (ip), vehicle: saline + alcohol) 139 % of control [9 of 10 alive]; (dose: 20.0 mg/kg/injection, schedule: Q01DX001 (ip), vehicle: saline) 147 % of control; (dose: 32.0 mg/kg/injection, schedule: Q01DX001 (ip), vehicle: saline + alcohol) 136 and 149 % of control; (dose: 32.0 mg/kg/injection, schedule: Q01DX001 (oral), vehicle: saline + alcohol) 136 and 139 % of control; under setting [1], 132 % of control. In addition, the T/C is 125 % of control [9 of 10 alive] (dose: 32.0 mg/kg/injection, schedule: Q#A X002 (ip), vehicle: saline + alcohol); 139 % of control (dose: 64.0 mg/kg/injection, schedule: Q01DX001 (ip), vehicle: saline + alcohol); 139 and 143 % of control (dose: 64.0 mg/kg/injection, schedule: Q01DX001 (oral), vehicle: saline + alcohol); 136 % of control (dose: 80.0 mg/kg/injection, schedule: Q01DX001 (ip), vehicle: saline); 136 % of control (dose: 160.0 mg/kg/injection, schedule: Q01DX001 (ip), vehicle: saline). For the same compound, the survivor count is 9 of 10 (dose: 12.5 mg/kg/injection, schedule: Q01DX009 (ip), vehicle: saline); 10 of 10 (dose: 25.0 mg/kg/injection, schedule: Q01DX009 (ip), vehicle: saline); 9 of 10 under setting [1]; 9 of 10 (dose: 50.0 mg/kg/injection, schedule: Q01DX009 (ip), vehicle: saline); 7 of 10 and 9 of 10 (dose: 64.0 mg/kg/injection, schedule: Q01DX005 (ip), vehicle: Klucel (hydroxypropylcellulose) (HPC)); 10 of 10 (dose: 64.0 mg/kg/injection, schedule: Q01DX005 (oral), vehicle: saline + alcohol). Further, the survivor count by setting is: (dose: 64.0 mg/kg/injection, schedule: Q## X004 (ip), vehicle: saline + alcohol) 9 of 10; (dose: 128.0 mg/kg/injection, schedule: Q01DX001 (oral), vehicle: saline + alcohol) 9 of 10; (dose: 160.0 mg/kg/injection, schedule: Q01DX001 (ip), vehicle: saline + alcohol) 7 of 10; (dose: 256.0 mg/kg/injection, schedule: Q01DX001 (oral), vehicle: saline + alcohol) 0 of 10; (dose: 320.0 mg/kg/injection, schedule: Q01DX001 (ip), vehicle: saline) 1 of 10.

With `CC(=O)OCC1OC(n2cnc3c(=S)nc(N)[nH]c32)C(OC(C)=O)C1OC(C)=O` (stereo unspecified), the T/C (dose: 12.5 mg/kg/injection, schedule: Q01DX005 (ip), vehicle: saline) was 125 % of control. The survivor count (dose: 25.0 mg/kg/injection, schedule: Q01DX005 (ip), vehicle: saline) is listed as 10 of 10 and the survivor count (dose: 50.0 mg/kg/injection, schedule: Q01DX005 (ip), vehicle: saline) was 10 of 10.

As to `Nc1ccn(C2OC(COC(=O)C34CC5CC(CC(C5)C3)C4)C(O)C2O)c(=O)n1` (stereo unspecified), the T/C (dose: 50.0 mg/kg/injection, schedule: Q01DX005 (ip), vehicle: Klucel (hydroxypropylcellulose) (HPC)) was 135 % of control. For the setting “dose: 100.0 mg/kg/injection, schedule: Q01DX005 (ip), vehicle: Klucel (hydroxypropylcellulose) (HPC)”, the survivor count is 9 of 10 and 10 of 10.
